# Laboratory results from article PMC12040169 (PLOS Biology, 2025).
# Some of the results follow.
# System: T1, CTL2-GFP (C. trachomatis L2/434/Bu, GFP-expressing)
# T1 construct: L2/434/Bu, GFP-expressing
# Parameters: species or system HeLa; Intracellular C. trachomatis growth in HeLa cells, bulk GFP fluorescence relative to DMSO
# Settings: bulk GFP, single well; 28.5 h, 10 µM; inhibitor
row,Structure (SMILES),% of control remaining [%]
1,CCN(CC)CCNc1nc(-c2cccc(Cl)c2)nc2ccccc12 [CBK267265C],47.3872
2,Cc1c(C#N)c(=O)oc2ccccc12 [CBK007705],137.366
3,COc1ccc(NC(=O)C2C3CCC(C3)C2C(=O)O)cc1OC (stereo not drawn) [CBK263684],100
4,CC(=O)NC1(c2ccc(F)cc2)CCN(C(=O)C2CCC2)CC1 [CBK283492],89.1888
5,CCC(COC)NS(=O)(=O)c1ccc(C(C)C)cc1 (stereo not drawn) [CBK044587],81.2228
6,O=C(CN1C(=O)[C@@H]2CCCN2c2ncccc21)NC1CCCCC1 [CBK286204],106.888
7,Nc1ncc(-c2cccc(/C=C/C(=O)O)c2)nc1N1CCN(CCO)CC1 [CBK063665],161.679
8,Cc1c(S(=O)(=O)Nc2ccc3cn[nH]c3c2)cnn1-c1ccccc1 [CBK067149],168.632
9,C[C@@H](Cn1nnc2ccccc21)NC(=O)Cc1ccccc1F [CBK282305],124.671
10,COc1ccc(-c2nc(NC(=O)CC#N)cnc2-c2ccc(F)cc2)cc1 [CBK037198],186.535
11,CN1CCC2(CC1)CC(NC(=O)c1ccco1)c1ccccc1O2 (stereo not drawn) [CBK283804],144.997
12,COc1cccc2sc(Nc3nc(-c4cccnc4)cs3)nc12 [CBK287470],108.308
13,CN1CCN(C(=O)c2ccsc2NS(=O)(=O)/C=C/c2ccccc2)CC1 [CBK042267],100
14,COc1ccc(NC(=O)C2CCCCC2C(=O)O)c(C)c1 (stereo not drawn) [CBK270301],117.084
15,O=C(O)C1CC(O)CN1S(=O)(=O)c1ccc([N+](=O)[O-])cc1 (stereo not drawn) [CBK266158],150.73
16,COCCN1CCN(C(=O)NCCc2c(C)[nH]c3ccc(Cl)cc23)CC1 [CBK307637],128.35
17,O=C(CCN1C(=O)[C@@H]2Cc3ccccc3CN2C1=O)N[C@H](C(=O)O)c1ccccc1 [CBK286751],107.931
18,CCN1CCCC(NC(=O)COc2nn(C)c3nc(C)cc(C)c23)C1 (stereo not drawn) [CBK305224],67.23
19,O=C1CCc2cccc(OCCOc3nccnc3N3CCNCC3)c21 [CBK200001G],116.488
20,O=C(C1CC1)N1CCC(Cn2nc(-c3cccs3)ccc2=O)CC1 [CBK284039],132.988
21,COCC1(C(=O)N(C)Cc2nnc(-c3ccccc3)o2)CCC1 [CBK306987],124.251

# Among those listed so far, four have an aryl methoxy group:
row,Structure (SMILES),% of control remaining [%]
3,COc1ccc(NC(=O)C2C3CCC(C3)C2C(=O)O)cc1OC (stereo not drawn) [CBK263684],100
10,COc1ccc(-c2nc(NC(=O)CC#N)cnc2-c2ccc(F)cc2)cc1 [CBK037198],186.535
12,COc1cccc2sc(Nc3nc(-c4cccnc4)cs3)nc12 [CBK287470],108.308
14,COc1ccc(NC(=O)C2CCCCC2C(=O)O)c(C)c1 (stereo not drawn) [CBK270301],117.084

# (cont.)

row,Structure (SMILES),% of control remaining [%]
1,O=c1[nH]ccn1CCNc1ccc(-c2cccc(Cl)c2Cl)cn1 [CBK037745],186.477
2,CC(C)(C)C(=O)Nc1ccc(Cc2ccc(NC(=O)C(C)(C)C)c(C(=O)O)c2)cc1C(=O)O [CBK261393],111.063
3,CC(=O)c1c(C)n(O)c2ccc(Cl)cc2c1=O [CBK217746],99.8565
4,C=CCOc1ccc(-c2nn(-c3ccccc3)cc2/C=C2/SC(=S)N(CC(=O)O)C2=O)c(C)c1 [CBK265062],138.411
5,CC1=CCC(C(=O)O)C(C(=O)Nc2cccnc2)C1 (stereo not drawn) [CBK265895],132.622
6,O=C(NC1(c2ccccc2)CC1)c1ccc(-n2cnnc2)cc1 [CBK282778],81.6684
7,CC(C)(C)OC(=O)NCc1ccc(CNCc2ccccc2Br)cc1 [CBK056701],90.7747
8,Cn1cc([C@@H]2CN(Cc3cccs3)C[C@H]2N)c2ccncc21 [CBK285320],124.151
9,Cc1nn(CC(=O)C(C)(C)C)c(=O)c2cc3sccc3n12 [CBK284111],114.156
10,O=c1[nH]c2c(c(=O)[nH]1)[C@H]1[C@H](O)[C@H](O)C[C@H]1[C@@H](c1ccccc1)N2 [CBK303239],140.572
11,O=S(=O)(c1cc(Cl)ccc1Cl)N1CCSC1 [CBK097980],145.785
12,NS(=O)(=O)c1ccc(NC(=O)CSc2ccc([N+](=O)[O-])cn2)cc1 [CBK269002],70.7271
13,CCc1csc(C2CN3CCCC3CO2)n1 (stereo not drawn) [CBK304793],114.51
14,Cc1ccc(Oc2ccc(C(=O)NCC(=O)O)cc2)cc1C [CBK286570],114.936
15,CCN(CC)C(=O)C1CCCN(C(=O)Nc2cccc(OC)c2)C1 (stereo not drawn) [CBK005159],114.276
16,NC(=O)c1ccc(NC(=O)c2sc3ccccc3c2Cl)cc1 [CBK262643],105.065
17,Cn1c(-c2ccc(C(=O)O)cc2)cc2oc(-c3ccccc3)nc2c1=O [CBK074957],89.1048
18,Cc1ccc(Cl)cc1NC(=O)c1cc(NC(=O)C2C3C=CC(C3)C2C(=O)O)ccc1N1CCCCC1 (stereo not drawn) [CBK268194],133.06
19,Cc1cc(C(=O)NCCO)ccc1Br [CBK175092],146.128
20,Cc1ccc(CSCCNS(=O)(=O)c2ccsc2C(=O)O)cc1 [CBK296727],136.814
21,COc1cccc(C(=O)NC(c2ccc([N+](=O)[O-])cc2)c2c(O)ccc3ccccc23)c1 (stereo not drawn) [CBK263971],134.379

row,Structure (SMILES),% of control remaining [%]
1,COc1ccc(-c2ccc(OC)cc2C(=O)Nc2ccc3c(c2)OCC(=O)N3)cc1 [CBK285821],123.114
2,Cn1c(=O)c2c(nc(NCCCO)n2C/C=C/c2ccccc2)n(C)c1=O [CBK268940],123.861
3,O=C(O)C1CCCCC1C(=O)NCc1cccnc1 (stereo not drawn) [CBK261695],99.5066
4,COc1cc2c(cc1CNC(=O)c1cn(CCN)nn1)CCC2 [CBK306886],19.7773
5,CC(Cn1cccn1)NCC(=O)NC1(C#N)CCCCC1 (stereo not drawn) [CBK304845],128.44
6,COC(=O)[C@@H]1CN(C(=O)C2CCCC2)CCN1C(=O)c1cccs1 [CBK289609],123.949
7,O=C(CSc1ccc2nnc(-c3ccccn3)n2n1)N1CCCCC1 [CBK287621],128.187
8,CN(CC1(C)COC1)C(=O)c1cn2cc(Cl)ccc2n1 [CBK281721],90.6322
9,CC(Nc1ccc2[nH]c(=O)[nH]c2c1)C(=O)N1CCN(c2ccccc2)CC1 (stereo not drawn) [CBK296748],132.702
10,O=C(c1ccc(O)cc1)c1ccc(C(=O)O)c(C(=O)O)c1 [CBK261075],100
11,CCc1nn(C)cc1CN1CCOC(c2nc(C(C)(C)C)cs2)C1 (stereo not drawn) [CBK304513],128.001
12,O=C(Nc1ccc([N+](=O)[O-])cc1)Nc1ccc(N2CCOCC2)c2nonc12 [CBK266885],125.534
13,CC(C)NC(=O)Nc1ccc(C(=O)N(CC#N)C2CC2)cc1 [CBK306120],133.529
14,CN(C)c1ccc2cccc(O)c2n1 [CBK149729],86.1676
15,CC1CCCCN1CCNC(=O)c1ccc(Cn2c(=S)[nH]c3ccccc3c2=O)cc1 (stereo not drawn) [CBK265674],80.4088
16,O=C(NC1CCc2ccccc21)c1cnc(-c2ccc(Cl)cc2)c(-c2ccc(O)cc2)c1 (stereo not drawn) [CBK036629],91.9762
17,O=C(O)CSc1nnc2n(-c3ccccc3)c3ccccc3n12 [CBK268557],121.2
18,CCOC(=O)C1=C(C)NC(=O)NC1c1ccc(-c2cccc([N+](=O)[O-])c2)o1 (stereo not drawn) [CBK072102],100
19,COc1ccccc1-c1nccnc1OCc1cccc(OC)c1OC [CBK106825],98.3812
20,CCC(CO)Nc1cncc(-c2cccc(O)c2)n1 (stereo not drawn) [CBK037777],109.257
21,O=C(O)CNS(=O)(=O)c1cc(Cl)sc1Cl [CBK034452],137.113

row,Structure (SMILES),% of control remaining [%]
1,Cc1cc(C(=O)Nc2ccc(S(=O)(=O)Nc3onc(C)c3C)cc2)no1 [CBK268166],34.8194
2,Cc1c(C(C)NC(=O)Nc2ccc(F)cc2F)cnn1C (stereo not drawn) [CBK266986],85.0986
3,C=Cn1ncc(CN2CCc3[nH]c4ccc(OCC)cc4c3C2)c1C [CBK282574],116.772
4,CC(O)c1cccc(NC(=O)CCC(=O)O)c1 (stereo not drawn) [CBK264691],111.611
5,CCNC(=O)C1=C(C(=O)NCC)N2C(=NC(C)(C)c3ccccc32)S1 [CBK010172],138.276
6,C[C@H](c1ccccc1)N1C(=O)[C@@H]2CN(C(=O)CC(C)(C)CC(=O)O)CCN2C1=O [CBK289639],82.7321
7,Cn1ccc(C2CCCCCN2C(=O)Cc2cccs2)n1 (stereo not drawn) [CBK283047],105.954
8,Cc1cc(OCCC#N)cc(C)c1Cl [CBK015872],125.392
9,Cc1nn(C)c(N2CCNCC2)c1NC(=O)c1ccccc1 [CBK050257T],121.265
10,CC(C)C[C@@H]1N[C@H](C(=O)NC2CC2)Cc2cn(Cc3nccn3C)c3cccc1c23 [CBK289423],114.931
11,CC(=O)N(C)c1ccc(NC(=O)/C=C/C(=O)O)cc1 [CBK287162],116.047
12,COC(=O)Cn1c(-c2ccc(OC)cc2)cc2cccnc21 [CBK282268],120.084
13,O=C(Cc1nnc(-c2ccncc2)o1)NCCC1=CCCCC1 [CBK288605],93.2599
14,O=[N+]([O-])c1ccn(C2CC(O)C(CO)O2)c1 (stereo not drawn) [CBK201229],101.312
15,Nc1ncc(-c2cccc(F)c2)nc1NCC1CCOCC1 [CBK063860],130.592
16,c1ccc2c(-c3cc(Nc4ccc5[nH]ccc5c4)ncn3)cccc2c1 [CBK037815],95.2427
17,CCOC(=O)c1cnc2cc(C)ccn2c1=O [CBK086650],108.582
18,C#CCOc1cc(Br)c(/C=C(/C#N)c2ccc([N+](=O)[O-])cc2)cc1OCC [CBK266617],96.0932
